# Data reported in PubChem BioAssay AID686979 (National Center for Advancing Translational Sciences (NCATS), 2013).
# The whole screen tested about 420,000 compounds, of which about 50,000 (12%) were called active. These results got no clear call from the source, so the numbers are uncertain. Calls follow the shape of the dose curve; as a rule, active = well fitted inhibition curve with a large enough effect; inconclusive = small, poorly fitted or top-dose-only effect; inactive = flat fitted curve, though single readings scatter.
# Test: qHTS for Inhibitors of human tyrosyl-DNA phosphodiesterase 1 (TDP1): qHTS in cells in presence of CPT; also: nearly all actives have a fitted effect of over 55% in size
# Settings: chicken DT40 Tdp1-/-;hTDP1 cells + 20 nM CPT, ATP luminescence, 48 h
# Potency is read from the fitted curve at half-maximal effect.
row,Structure (SMILES),Potency
1,CC(C)(C)OC(=O)N1CCC(N(C(=O)c2ccccc2)c2ccc(Cl)cc2)CC1,inconclusive: 18.4 µM
2,CCc1cc(C(=O)NCC2(N3CCCCC3)CCCCC2)sc1C,inconclusive: 29.1 µM
3,O=C(OC1CN2CCC1CC2)C1c2ccccc2C=Cc2ccccc21 (centres undefined),inconclusive: 29.1 µM
4,COc1cc(C(=O)NCC2(N3CCOCC3)CCCCC2)cc(OC)c1C,inconclusive: 29.1 µM
5,O=C(NCC1(N2CCOCC2)CCCCC1)c1cc(Br)ccc1Cl,inconclusive: 29.1 µM
6,COc1cccc(C(=O)N(c2cc(C)cc(C)c2)C2CCN(C(=O)OC(C)(C)C)CC2)c1,inconclusive: 29.1 µM
7,CCOc1ncccc1C(=O)NCC1(N2CCOCC2)CCCCC1,inconclusive: 29.1 µM
8,CC(C)(C)c1ccc(C(=O)NCC2(N3CCOCC3)CCCCC2)cc1,inconclusive: 20.6 µM
9,CC(=O)N(c1ccccc1)C1CCNCC1,inconclusive: 29.1 µM
10,CCC(c1nnnn1C1CCCCC1)N1CCC(n2c(=O)[nH]c3ccccc32)CC1 (centres undefined),inconclusive: 29.1 µM
11,COc1ccccc1C(=O)NCC1(N2CCOCC2)CCCCC1,inconclusive: 23.1 µM
12,CCCCOc1ccc(C(=O)NCC2(N3CCOCC3)CCCCC2)cc1,inconclusive: 13 µM
13,Cc1cc(C)cc(N(C(=O)c2ccccc2)C2CCN(C(=O)OC(C)(C)C)CC2)c1,inconclusive: 29.1 µM
14,O=C(OC1CN2CCC1CC2)C1c2ccccc2Oc2ccccc21 (centres undefined),inconclusive: 9.2 µM
15,COc1ccc(Cl)cc1C(=O)NCC1(N2CCOCC2)CCCCC1,inconclusive: 29.1 µM
16,COc1ccc(C(=O)NCC2(N3CCCCC3)CCCCC2)c(OC)c1OC,inconclusive: 16.4 µM
17,CSc1ccccc1C(=O)NCC1(N2CCCCC2)CCCCC1,inconclusive: 29.1 µM
18,CC(C)c1ccc(NC2CCN(C(=O)OC(C)(C)C)CC2)cc1,inconclusive: 23.1 µM
19,CC(C)c1ccc(C(=O)NCC2(N3CCOCC3)CCCCC2)cc1,inconclusive: 32.6 µM
